## Library screen at single concentrations

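Growth of Mycobacterium tuberculosis over 3 days (7H9 medium with glucose and tyloxapol); the read-out is not stated. Compounds at 50 µM. Direction is inferred from retests: higher values go with more growth inhibition. Of about 69,000 compounds tested this way, about 760 (1.1%) reached 50% or more in at least one test.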

Results are given as percent effect. The record does not define 0% and 100%; most values in the screen are far below 50% and negative numbers occur (in some assays of this library far below -100). Compounds were drawn at random from those tested, without regard to their results. Two or more numbers in one place are separate tests of the same structure; such repeats can differ widely.

SMILES	Percent Effect
Cc1cccc(CN2CCC(c3nnsc3S(C)(=O)=O)CC2)c1	31.21
COc1ccccc1OC1CN(C(=O)c2ccc(C(C)=O)s2)C1	14.39
O=C(O)C(F)(F)F.[H][C@@]12C[C@@H](c3nc(C4CC4)cs3)O[C@]1([H])CN(C(=O)C1CCOCC1)C2	-9.981
CN(C)C(=O)N1CCN(C(=O)c2ccc(Cl)c(Cl)c2)C(C)(C)C1	-16.34
O=C(O)C(F)(F)F.[H][C@]12CCN(C(=O)c3ccco3)[C@@]1([H])CC[C@H](COCCN1CCCC1)O2	-0.5657
CNc1ncc(CN(C)C2CCN(C(C)C)CC2)cn1	-38.44
Cc1cccc(OCCC(=O)N2CCN(CC(=O)NC3CC3)CC2)c1C	12.86
Cc1ccc(CS(=O)(=O)Cc2nc(N)nc(N(C)C)n2)cc1	-7.023
COc1ccc(C(=O)N(Cc2cnn(C)c2)C(C)C)cc1OC(F)F	-10.25
CS(=O)(=O)NC1CCc2c(ccc(=O)n2CC2CC2)C1 (stereo not drawn)	-1.666
O=S1(=O)c2cccnc2OC(COc2ccccc2)CN1CC1CC1 (stereo not drawn)	16.44
CCc1nc(C2CCCN(C(=O)NC3CC3)C2)no1 (stereo not drawn)	-3.657
CCc1ccc(CN2CCc3ncnc(N4CCOCC4)c3CC2)o1.O=C(O)C(F)(F)F	-6.948 & 10.28
Cn1ccc(N2CCCC(NC(=O)c3ccsc3)C2=O)n1 (stereo not drawn)	-17.37 & 3.63
COCCn1ccc(=O)c(OCC(=O)Nc2cccc(Cl)c2)c1C	9.71
CC(C)NC(=O)N1CCc2ncnc(-c3ccncc3)c2CC1.O=C(O)C(F)(F)F	-19.49
CCS(=O)(=O)N1CCCCC1c1nc(C(C)C)no1 (stereo not drawn)	80.76
Cc1cc(N2CC[C@H](O)C2)n2nc(C)c(C)c2n1	-10.93
CC(CO)CSc1ncnc2[nH]ncc12 (stereo not drawn)	-0.6469
CN1CCC(N(Cc2ccccc2F)C(=O)NCc2ccncc2)CC1	-5.994
CN1[C@@H](c2ccccc2)[C@@H](C(=O)NCC2CCOCC2)C[C@@]1(C)C(=O)O	6.282
Cc1cccc(CN2CCC(c3nnsc3S(C)(=O)=O)CC2)n1	45.79
CN1CCN(S(=O)(=O)c2cccc(F)c2)c2ccccc21	17.24
CC1(C)CN(C(=O)NCCc2ccn(-c3ccccc3)n2)CCO1	25.86
Cc1nn(C)c2c(=O)n(Cc3ccccc3)nnc12	27.44
COc1ccccc1OCCNS(=O)(=O)N1CCOCC1	7.161
Cc1nc(N2CCCC2)nc2c1CCN(C(=O)C1CCC1)CC2	17.23
COCCn1ccc(NC(=O)Nc2ccc(C(N)=O)c(F)c2)n1	-9.509 & -6.874
CN(C)C(=O)N1CCc2c(CNc3ncccn3)cncc2C1	11.6
Cc1noc(C)c1CNC[C@@]1(COc2cccnc2)C[C@@H](O)[C@@H](O)C1.Cl.Cl	-35.94 & -2.551
O=C(c1ccc2nccn2c1)N1CCCC1c1noc(C2CC2)n1 (stereo not drawn)	-17.65
O=C(Nc1cnc(N2CCOCC2)nc1)c1ccc(C(F)(F)F)cc1	-11.19
O=C(CC1CCC2(CC1)CCN(Cc1nccs1)CC2)N1CC=CC1	16.38
CC(C)COCCC(=O)Nc1cccnc1-n1cncn1	-3.504 & -14.2
Cc1noc(C)c1CNC(=O)N1CCN(Cc2cscn2)CC1	-2.405
O[C@@H]1CN(Cc2ccncc2)C[C@H]1Oc1ccccc1	5.804
CC(C)N1CCC2(CC1)CN(C)C(=O)C[C@H]2C(F)(F)F	-35.05 & -5.443
CC(C)N1CC2(CCC1=O)CCN(C(=O)c1cc(F)ccc1Cl)CC2	29.32
O=C(Cc1cccs1)N1CCC(O)(CN2CCc3ccccc3C2)C1 (stereo not drawn)	20.8
Cc1cc(C)c(CNC(=O)N(C)Cc2ccc(F)cc2)c(=O)[nH]1	3.691
CSc1ccc(C(CNC(C)=O)N2CCc3sccc3C2)cc1 (stereo not drawn)	26.47
COc1c(C)cnc(CN2CCCCC2CCN2CCOCC2)c1C (stereo not drawn)	-5.514 & 9.189
[H][C@@]12CN(C(=O)c3cccn3C)C[C@]1([H])C(=O)N(CC1CC1)C2	-26.06
COCCCNC(=O)Nc1ccc(F)c(C(N)=O)c1	-17.59
Cc1ccc(N2CCCC(NCC(=O)NC(C3CC3)C3CC3)C2)nn1 (stereo not drawn)	34.97
Cc1cnn(CC(C)NCCc2cccs2)c1 (stereo not drawn)	-23
CC(=O)N1CCn2c(-c3cccc(F)c3)cnc2C12CCNCC2.O=C(O)C(F)(F)F	9.752 & -8.193
Cc1noc(C)c1-c1cc(C2CCNCC2)ccn1	12.73
[H][C@@]12COC[C@]1([H])[C@@H](OCCN(C)C)CN2C(=O)c1ccc(C#N)cc1	-10.84
COCCN(C)Cc1nc(-c2cccc(F)c2F)oc1C	4.125
[H][C@@]12CN(Cc3ccccc3)C[C@]1([H])OCC(=O)N2CC(N)=O	-4.911 & -3.385
COCCO[C@H]1CCN(C(=O)c2ccno2)[C@H]1Cc1ccncc1.O=C(O)C(F)(F)F	-11.19
COC(=O)CN(C(=O)c1ccc(Cl)o1)c1cccc(F)c1	5.769 & -2.212
CC(=O)N1CCCC(c2ccc(C(=O)NC3CCCC3)cn2)C1 (stereo not drawn)	-25.29
CC(C)(CNC(=O)c1ccco1)CNC(=O)c1ccco1	11.19 & 3.31
CCCN(CCC)C(=O)CN(C)Cc1cnc(C)s1	0.549
[H][C@@]12C[C@H](C(=O)NCc3ccccc3)[C@@]([H])(CN(S(=O)(=O)N(C)C)C1)O2	-10.48
c1ccc(-c2cnc(CNC3CCc4ncnn4C3)o2)cc1 (stereo not drawn)	-48.47
CCn1ccc(NS(=O)(=O)c2cccc(COC)c2)n1	14.82
Cc1cc(CC(C)NC2CCSCC2)[nH]n1 (stereo not drawn)	-7.609
Cc1ccc([C@H]2CN(C(=O)CC3CCC3)C[C@@H]2N)o1	7.065
Cn1ccc(C(=O)N2CCc3[nH]nc(Nc4ccccc4)c3C2)n1	-7.112
[H][C@@]12CCN(C(=O)c3cnoc3C)C[C@]1([H])[C@@H](CN1CCCC1)OC2	54.1
O=C(O)C(F)(F)F.[H][C@]12CC(=O)N(CC3CC3)[C@@]1([H])CCN2Cc1cccc(C)n1	0.5426
Cc1ccc(CN2Cc3nnn(C)c3C(COCC3CC3)C2)o1.O=C(O)C(F)(F)F (stereo not drawn)	1.454 & -1.234
CCn1ncnc1CN1CCc2[nH]cnc2C1CCc1ccccc1 (stereo not drawn)	27.56
NC(=O)c1cccc(CS(=O)(=O)CC(O)Cn2cccn2)c1 (stereo not drawn)	0.07419
CCOC(=O)N1CCC(NC(=O)Nc2cccnc2OCC)CC1	5.894
O=C(Nc1ccccc1)C1CN(CC2CC2)CC12CCOCC2.O=C(O)C(F)(F)F (stereo not drawn)	22.43
O=C(NC(Cc1ccsc1)c1nccs1)C1CC1 (stereo not drawn)	24.25
Cc1ccc(CNc2cnn(CC(F)F)c2)cc1C	17.11
Cn1cc(NC(=O)N2CCC2c2ccccc2)ccc1=O (stereo not drawn)	11.57
CCN(CC)C(=O)CN(C)Cc1nc2c(cnn2C)c(=O)[nH]1	-1.076
CCN1CCC2(COCc3cnc(NCC4CC4)nc32)C1.O=C(O)C(F)(F)F (stereo not drawn)	1.768
[H][C@@]12CN(C(=O)c3cnn(C)c3)CCO[C@]1([H])CN(C1CCC1)C2	0.6596

Measurements from “University of Dundee, Small-Polar-MMV Screening Library” (2021), ChEMBL document CHEMBL3988442.